# Percent effect of library compounds

By UniProt entry, the sequences of proteins in these tests, tags left out. Residues count along the entry.
UniProt P9WPC5, whole entry: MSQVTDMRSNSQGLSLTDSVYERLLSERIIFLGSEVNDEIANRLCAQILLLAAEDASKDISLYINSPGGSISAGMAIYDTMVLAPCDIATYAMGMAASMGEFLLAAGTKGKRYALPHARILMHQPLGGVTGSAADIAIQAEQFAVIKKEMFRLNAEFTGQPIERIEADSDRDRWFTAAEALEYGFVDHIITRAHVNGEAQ
UniProt P9WPC3, whole entry partner: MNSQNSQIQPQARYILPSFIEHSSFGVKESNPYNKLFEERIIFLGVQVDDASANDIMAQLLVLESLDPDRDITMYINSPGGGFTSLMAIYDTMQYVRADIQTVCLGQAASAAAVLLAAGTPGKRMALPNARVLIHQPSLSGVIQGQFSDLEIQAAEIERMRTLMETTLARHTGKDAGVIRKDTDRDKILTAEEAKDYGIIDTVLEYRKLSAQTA
UniProt Q4DA54, 1-478: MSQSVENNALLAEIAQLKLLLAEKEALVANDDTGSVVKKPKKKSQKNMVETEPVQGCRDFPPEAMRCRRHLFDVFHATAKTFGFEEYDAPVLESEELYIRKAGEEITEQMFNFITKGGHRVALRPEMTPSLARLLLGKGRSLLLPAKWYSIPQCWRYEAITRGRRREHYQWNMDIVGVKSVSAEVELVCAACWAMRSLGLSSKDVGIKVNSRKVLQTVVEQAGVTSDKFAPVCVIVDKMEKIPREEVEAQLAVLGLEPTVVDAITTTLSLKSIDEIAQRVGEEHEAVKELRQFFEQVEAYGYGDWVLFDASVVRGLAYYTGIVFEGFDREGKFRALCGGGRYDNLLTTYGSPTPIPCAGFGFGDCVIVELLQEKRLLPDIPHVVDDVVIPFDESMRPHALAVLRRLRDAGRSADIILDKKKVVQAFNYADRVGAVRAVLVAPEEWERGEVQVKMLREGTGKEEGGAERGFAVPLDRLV
UniProt Q8IDJ8, 1-583: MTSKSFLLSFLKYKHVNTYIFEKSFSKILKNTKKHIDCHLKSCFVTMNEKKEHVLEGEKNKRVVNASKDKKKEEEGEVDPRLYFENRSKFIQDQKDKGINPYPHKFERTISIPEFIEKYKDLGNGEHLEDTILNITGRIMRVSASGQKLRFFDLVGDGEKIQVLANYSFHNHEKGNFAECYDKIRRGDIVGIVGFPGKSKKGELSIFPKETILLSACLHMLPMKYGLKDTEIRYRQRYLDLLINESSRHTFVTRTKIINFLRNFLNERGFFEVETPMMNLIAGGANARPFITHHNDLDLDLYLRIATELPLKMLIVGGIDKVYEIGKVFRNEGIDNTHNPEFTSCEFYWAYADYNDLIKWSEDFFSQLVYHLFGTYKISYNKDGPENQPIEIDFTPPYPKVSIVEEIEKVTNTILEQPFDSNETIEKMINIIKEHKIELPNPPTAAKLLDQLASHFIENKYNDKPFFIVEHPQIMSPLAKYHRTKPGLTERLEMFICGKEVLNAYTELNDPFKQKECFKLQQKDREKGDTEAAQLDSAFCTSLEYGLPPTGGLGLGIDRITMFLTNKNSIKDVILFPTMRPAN
UniProt P9WNZ1, whole entry: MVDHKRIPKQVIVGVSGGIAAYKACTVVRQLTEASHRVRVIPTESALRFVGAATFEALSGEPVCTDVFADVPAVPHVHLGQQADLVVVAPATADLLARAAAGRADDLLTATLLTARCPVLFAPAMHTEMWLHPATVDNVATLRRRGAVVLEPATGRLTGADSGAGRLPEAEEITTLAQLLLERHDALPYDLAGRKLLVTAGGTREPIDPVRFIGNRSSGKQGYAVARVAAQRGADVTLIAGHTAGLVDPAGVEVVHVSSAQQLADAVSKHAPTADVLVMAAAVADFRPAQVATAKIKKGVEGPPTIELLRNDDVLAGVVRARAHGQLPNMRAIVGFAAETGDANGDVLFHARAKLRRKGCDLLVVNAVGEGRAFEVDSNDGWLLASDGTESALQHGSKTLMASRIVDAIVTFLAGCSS
UniProt I6X8D2, whole entry: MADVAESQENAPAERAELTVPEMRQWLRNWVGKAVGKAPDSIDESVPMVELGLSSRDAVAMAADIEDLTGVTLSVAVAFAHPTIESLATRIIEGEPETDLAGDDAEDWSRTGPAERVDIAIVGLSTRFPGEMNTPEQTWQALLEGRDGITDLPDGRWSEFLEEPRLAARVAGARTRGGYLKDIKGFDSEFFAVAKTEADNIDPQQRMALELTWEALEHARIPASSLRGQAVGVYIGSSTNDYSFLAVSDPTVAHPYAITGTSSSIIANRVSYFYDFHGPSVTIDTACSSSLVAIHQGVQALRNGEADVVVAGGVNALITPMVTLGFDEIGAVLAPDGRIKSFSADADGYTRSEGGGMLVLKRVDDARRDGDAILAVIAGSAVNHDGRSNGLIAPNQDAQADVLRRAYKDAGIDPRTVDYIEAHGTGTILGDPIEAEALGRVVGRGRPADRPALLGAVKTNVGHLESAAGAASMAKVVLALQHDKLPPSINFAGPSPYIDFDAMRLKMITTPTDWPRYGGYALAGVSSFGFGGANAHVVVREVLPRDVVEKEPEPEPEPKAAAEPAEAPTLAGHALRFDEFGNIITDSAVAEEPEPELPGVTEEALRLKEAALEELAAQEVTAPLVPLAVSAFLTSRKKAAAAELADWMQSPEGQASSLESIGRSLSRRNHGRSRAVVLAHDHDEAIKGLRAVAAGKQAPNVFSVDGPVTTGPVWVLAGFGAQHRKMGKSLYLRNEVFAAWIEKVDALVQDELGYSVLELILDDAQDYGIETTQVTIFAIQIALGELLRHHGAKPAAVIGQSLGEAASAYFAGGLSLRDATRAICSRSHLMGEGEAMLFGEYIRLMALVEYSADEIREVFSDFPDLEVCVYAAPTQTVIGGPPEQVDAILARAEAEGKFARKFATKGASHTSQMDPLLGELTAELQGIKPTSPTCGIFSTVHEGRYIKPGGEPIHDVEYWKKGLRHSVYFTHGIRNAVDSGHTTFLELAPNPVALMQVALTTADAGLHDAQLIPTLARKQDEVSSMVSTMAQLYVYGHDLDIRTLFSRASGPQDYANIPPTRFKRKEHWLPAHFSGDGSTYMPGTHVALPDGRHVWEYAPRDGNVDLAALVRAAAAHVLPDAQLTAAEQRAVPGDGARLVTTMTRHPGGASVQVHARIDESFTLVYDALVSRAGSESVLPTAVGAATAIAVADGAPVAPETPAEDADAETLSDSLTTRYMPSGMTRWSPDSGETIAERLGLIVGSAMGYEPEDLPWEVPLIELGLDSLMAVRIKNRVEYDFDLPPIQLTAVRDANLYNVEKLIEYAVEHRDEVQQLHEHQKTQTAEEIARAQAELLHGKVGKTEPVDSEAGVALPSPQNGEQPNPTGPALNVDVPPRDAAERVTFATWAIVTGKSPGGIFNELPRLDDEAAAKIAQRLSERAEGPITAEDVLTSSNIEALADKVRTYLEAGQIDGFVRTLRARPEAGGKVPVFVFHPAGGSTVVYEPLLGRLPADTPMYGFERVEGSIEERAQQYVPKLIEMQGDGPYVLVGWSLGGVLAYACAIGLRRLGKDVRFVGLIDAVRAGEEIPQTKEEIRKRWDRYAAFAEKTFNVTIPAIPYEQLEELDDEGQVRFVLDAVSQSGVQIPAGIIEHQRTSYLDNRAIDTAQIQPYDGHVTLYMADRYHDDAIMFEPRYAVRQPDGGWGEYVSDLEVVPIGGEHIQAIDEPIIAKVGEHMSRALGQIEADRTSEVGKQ

Measurements from “University of Dundee, Small-Polar-MMV Screening Library” (2021), ChEMBL document CHEMBL3988442.

ClpP1P2: 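ClpP1P2, Mycobacterium tuberculosis (UniProt P9WPC5 and UniProt P9WPC3). Protease assay of ClpP1P2, read by the AMC dye that it sets free. Compounds at 50 µM. Higher reads as stronger inhibition, judged from the few compounds that gave an IC50. Most other retested compounds had strongly negative values. Of about 69,000 compounds tested this way, about 10 (0.015%) reached 50% or more in at least one test.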
TcHisRS: 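Enzyme assay of histidyl-tRNA synthetase; the read-out is not stated. Target: Histidine-tRNA ligase, Trypanosoma cruzi CL Brener (UniProt Q4DA54). Tested at 30 µM. Higher reads as stronger inhibition (inferred: compounds with an IC50 in retests scored well above the rest). About 69,000 compounds were tested under these conditions; 0.045% (about 31) showed 50% or more at least once.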
PfKRS1: 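Enzyme assay of the cytosolic lysyl-tRNA synthetase in 384-well plates, read by luminescence. Target: Lysine-tRNA ligase, Plasmodium falciparum 3D7 (UniProt Q8IDJ8). Tested at 30 µM. Direction is inferred from only a few compounds that gave an IC50; most scored high, so higher reads as stronger inhibition. Of about 69,000 compounds tested this way, about 49 (0.071%) reached 50% or more in at least one test.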
CoaBC: 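Coenzyme A biosynthesis protein CoaBC, Mycobacterium tuberculosis (UniProt P9WNZ1). Enzyme assay of CoaBC with a phosphate dye (Biomol Green) read at 650 nm. Concentration: 30 µM. Higher reads as stronger inhibition, judged from the few compounds that gave an IC50. Most strong results did not repeat in a second test. About 67,000 compounds were tested under these conditions; 0.06% (about 40) showed 50% or more at least once.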
Leishmania in macrophages: 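Cell assay of Leishmania donovani living inside macrophages; the read-out is not stated. Concentration: 30 µM. Direction is inferred from retests: higher values go with stronger inhibition. Size under these conditions: about 69,000 compounds, about 1,000 of them at 50% or above in at least one test.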
Pks13 thioesterase: 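Polyketide synthase Pks13, Mycobacterium tuberculosis (UniProt I6X8D2). Enzyme assay of the thioesterase domain of polyketide synthase 13; the read-out is not stated. Compounds at 30 µM. Higher reads as stronger inhibition (inferred from which compounds were picked for retests). About 67,000 compounds were tested under these conditions; 0.46% (about 300) showed 50% or more at least once.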

Results are given as percent effect.
The record does not define 0% and 100%; most values in the screen are far below 50% and negative numbers occur (in some assays of this library far below -100).
This is an unselected part of the compounds tested.

compound: O=C(O)C(F)(F)F.O=C(O)C(F)(F)F.c1cc(CN2CCCC3(COCCN(Cc4c[nH]nn4)C3)C2)cs1 (stereo unspecified)
Leishmania in macrophages: -0.8755

compound: CCC(=O)N1CCC2(CC1)COCCN2Cc1ccc(F)cc1
ClpP1P2: -2.887
TcHisRS: 10.92
PfKRS1: -0.8796
CoaBC: -4.26
Pks13 thioesterase: -1.448

compound: Cc1cc(C)c2ncc(C#N)c(N3CCS(=O)(=O)CC3)c2c1
ClpP1P2: -0.9049
TcHisRS: 8.333
PfKRS1: 4.079
CoaBC: 3.113
Leishmania in macrophages: 1.838
Pks13 thioesterase: -0.8022

compound: CCOC(=O)CNC(=O)c1cccnc1Oc1ccc(Cl)cc1
ClpP1P2: 17.51
TcHisRS: -8.271
PfKRS1: 1.673
CoaBC: 2.66
Leishmania in macrophages: 23.77
Pks13 thioesterase: 6.54

compound: O=C(O)C(F)(F)F.[H][C@@]12CN(S(=O)(=O)c3ccc(C#N)cc3)C[C@]1([H])OCCN2C
Leishmania in macrophages: 7.965

compound: CN(C(=O)c1ccc(Cl)cc1)C1CCN(c2ccccn2)CC1
ClpP1P2: -32.66
TcHisRS: 7.289
PfKRS1: -0.867
CoaBC: 2.872
Leishmania in macrophages: 4.091
Pks13 thioesterase: -10.54

compound: O=C(O)C(F)(F)F.O=C(O)C(F)(F)F.[H][C@@]12CCCO[C@]1([H])[C@H](N(C)Cc1ccco1)CN2Cc1ccc(OC)cc1
Leishmania in macrophages: 37.3

compound: O=C(O)C(F)(F)F.c1ccc(N2CCCC3(CCN(Cc4ccsc4)C3)C2)nc1 (stereo unspecified)
Leishmania in macrophages: 22.42

compound: COc1ccc(NC(=O)C(c2cccc(F)c2)N2CCOCC2)cc1 (stereo unspecified)
ClpP1P2: -8.235
TcHisRS: 4.348
PfKRS1: 4.051
CoaBC: 5.533
Leishmania in macrophages: -8.864
Pks13 thioesterase: -16.32

compound: Cc1cc(CN(C)C(=O)CN2CCCCCC2=O)no1
ClpP1P2: 17.7
TcHisRS: 9.901
PfKRS1: 5.743
CoaBC: 1.205
Leishmania in macrophages: 9.728
Pks13 thioesterase: -6.247

compound: CCN1CCC2(CC1)CC(COC)N(Cc1csc(C)n1)C2 (stereo unspecified)
ClpP1P2: -5.264
TcHisRS: 5.882
PfKRS1: 1.049
CoaBC: -12.08
Pks13 thioesterase: -5.526

compound: CC1CCCN(C(=O)c2ncncc2Cl)C1 (stereo unspecified)
ClpP1P2: 13.22
TcHisRS: 5.882
PfKRS1: 5.124
CoaBC: -1.21
Leishmania in macrophages: 18.91
Pks13 thioesterase: 5.851

compound: COCCC(=O)NCc1ccc(-c2ncncc2C(=O)N(C)C)cc1
ClpP1P2: 2.775
TcHisRS: -2.26
PfKRS1: 2.982
CoaBC: -18.16
Leishmania in macrophages: 5.269
Pks13 thioesterase: 4.131

compound: CC(C(=O)NS(=O)(=O)Cc1cc(-c2ccccc2)no1)C1CC1 (stereo unspecified)
ClpP1P2: -7.029
TcHisRS: 1.538
PfKRS1: 5.757
CoaBC: 2.484
Leishmania in macrophages: 21.6
Pks13 thioesterase: -24.94

compound: Cc1nccn1C1CCCN(C(=O)c2cc3ccccc3[nH]2)C1 (stereo unspecified)
ClpP1P2: 2.856
TcHisRS: 5.263
PfKRS1: 7.288
CoaBC: -1.028
Leishmania in macrophages: 26.91
Pks13 thioesterase: -13.35

compound: CC(=O)NCc1cc2n(n1)CCN(Cc1cccc(Cl)c1F)C2
ClpP1P2: 15.83
TcHisRS: 0
PfKRS1: -0.0353
CoaBC: 1.899
Leishmania in macrophages: 28.3
Pks13 thioesterase: 13.53

compound: Cc1cnn(CC(=O)N2CCC3(CCC(=O)N(CCCO)C3)CC2)c1
ClpP1P2: -1.812
TcHisRS: 4.712
PfKRS1: 3.602
CoaBC: 4.733
Leishmania in macrophages: 36.36
Pks13 thioesterase: -22.92

compound: CCNC(=O)C1(Cc2cc(-c3ccccc3)no2)CCCN(C(C)C)C1 (stereo unspecified)
ClpP1P2: -25.44
TcHisRS: 11.11
PfKRS1: 0.09111
CoaBC: -0.4854
Leishmania in macrophages: 32.24
Pks13 thioesterase: 8.35

compound: [H][C@@]12COC[C@@H](Cc3nc(C)no3)[C@]1([H])CN(S(=O)(=O)CCC)C2
Leishmania in macrophages: -4.196

compound: COc1cc(F)cc(CNC(=O)Nc2ccn(CC(F)F)n2)c1
ClpP1P2: -0.6569
TcHisRS: 4.459
PfKRS1: 1.723
Leishmania in macrophages: 16
Pks13 thioesterase: -39.5

compound: Cc1nn(C)cc1-c1cc(C(F)F)n2nc(CCC(=O)O)nc2n1
ClpP1P2: 2.855
TcHisRS: 8.092
PfKRS1: 3.829
CoaBC: -4.049
Leishmania in macrophages: 27.1
Pks13 thioesterase: 16.38

Once more, the final 2:

{"compound": "COc1cc(F)cc(CNC(=O)Nc2ccn(CC(F)F)n2)c1", "ClpP1P2": -0.6569, "TcHisRS": 4.459, "PfKRS1": 1.723, "Leishmania in macrophages": 16, "Pks13 thioesterase": -39.5}
{"compound": "Cc1nn(C)cc1-c1cc(C(F)F)n2nc(CCC(=O)O)nc2n1", "ClpP1P2": 2.855, "TcHisRS": 8.092, "PfKRS1": 3.829, "CoaBC": -4.049, "Leishmania in macrophages": 27.1, "Pks13 thioesterase": 16.38}